Library screening results

From ChEMBL document CHEMBL3988442, “University of Dundee, Small-Polar-MMV Screening Library” (2021).

Results are given as percent effect. The controls that fix the scale are not given in the record; negative values are as filed. The compounds are a random part of those screened.

Mtb growth Cornell: 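Whole-cell assay for inhibitors of Mycobacterium tuberculosis growth, labelled Cornell in the record; the read-out is not stated. The concentration is filed as 10 mM, unlikely as a test dose, so the dose is not known. Higher means stronger inhibition (inferred from two other growth screens of the library). Size under these conditions: about 53,000 compounds, about 900 of them at 50% or above in at least one test.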
Mtb heat-shock: 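Assay on Mycobacterium tuberculosis, filed only as a heat shock assay from Cornell; the read-out is not stated. The concentration is filed as 10 mM, unlikely as a test dose, so the dose is not known. The record gives no direction; compounds that gave an IC50 in retests scored well above the rest, so higher reads as stronger inhibition. Of about 69,000 compounds tested this way, about 930 (1.4%) reached 50% or more in at least one test.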

* Cc1ccc(Nc2nccc(C3CCN(C(=O)CN)C3)n2)nc1.Cl (stereo unspecified) : Mtb growth Cornell: -17.55%; Mtb heat-shock: -1.968%
* COCc1nc(C(=O)N2CCCC2c2ccc(OC)cc2)cs1 (stereo unspecified) : Mtb growth Cornell: -19.26%; Mtb heat-shock: 6.691%
* CC(C)c1cc(CNC(=O)Nc2cc(F)cc(N3CCCC3)c2)on1 : Mtb growth Cornell: 9.178%; Mtb heat-shock: -6.95%
* COc1ccccc1OC1CCN(C(=O)c2c[nH]c(=O)[nH]c2=O)CC1 : Mtb heat-shock: 5.309%
* CCN(CC)S(=O)(=O)c1ccc(C(F)(F)F)cc1C#N : Mtb growth Cornell: 22.67%; Mtb heat-shock: -3.959%
* CC(C)c1noc(C2CCCN2C(=O)Cc2cn3ccsc3n2)n1 (stereo unspecified) : Mtb growth Cornell: 9.243%; Mtb heat-shock: 12.24%
* Cc1nn(C)c(N(C)C)c1CNCC(O)COc1cccc(F)c1 (stereo unspecified) : Mtb growth Cornell: 19.92%; Mtb heat-shock: 4.971%
* CC(C)(C)c1cc(NC(=O)CN2CCCC2Cn2cncn2)on1 (stereo unspecified) : Mtb growth Cornell: -9.357%; Mtb heat-shock: 2.377%
* O=C(CCCc1nc2ccccc2[nH]1)N1CCCC(n2cccn2)C1 (stereo unspecified) : Mtb heat-shock: -4.6%
* COCCNC(=O)c1ccccc1-n1cc(CN)cn1 : Mtb growth Cornell: -18.17%; Mtb heat-shock: 8.983%
* CCc1noc(CS(=O)(=O)CC=C(C)C)n1 : Mtb growth Cornell: 12.22%; Mtb heat-shock: 29.3%
* Cc1nc(O)c2nnn(C[C@H]3CCCN3C(=O)CCC3CCCC3)c2n1 : Mtb growth Cornell: -3.127%; Mtb heat-shock: 3.099%
* [H][C@@]12OCCN(C(=O)c3ccc(C)o3)[C@@]1([H])CC[C@H]2OC : Mtb growth Cornell: -36.44%; Mtb heat-shock: -20.03%
* CC(C)(C)n1cc(C(=O)N2CCN(Cc3ccsc3)CC2)cn1 : Mtb heat-shock: -2.408%
* Cc1cccc(C)c1OC1CN(Cc2cnc(-c3ccco3)nc2)C1 : Mtb growth Cornell: 17.49%; Mtb heat-shock: 13.88%
* CCc1nnc(Nc2cccc(C3CCCN(CC(C)(C)C)C3)n2)s1 (stereo unspecified) : Mtb growth Cornell: -5.749%; Mtb heat-shock: -8.612%
* O=C(O)C(F)(F)F.O=C(O)C(F)(F)F.[H][C@@]12COC[C@]1(CNC(=O)c1ccsc1)CN(Cc1cccc(C)n1)C2 : Mtb growth Cornell: 10.45%; Mtb heat-shock: -6.781%
* COc1cc(OC)cc(C2NC(=O)CN2Cc2ccc(Br)cc2)c1 (stereo unspecified) : Mtb growth Cornell: -0.9721%; Mtb heat-shock: 23.77%
* COc1cc(-c2n[nH]c(CCN)n2)cc(OC)c1OC : Mtb growth Cornell: -2.903%; Mtb heat-shock: -17.32%
* Cc1ccccc1C1(C(=O)NCCN(C)C)CCOCC1 : Mtb heat-shock: 9.855%
* COc1cc(CN(C)C(=O)NCC(=O)NC(C)C)ccc1SC : Mtb heat-shock: 6.599%
* COCCOc1ccc(CNc2cnc3ccccc3n2)cn1 : Mtb growth Cornell: 12.41%; Mtb heat-shock: -27.73%
* CCc1ocnc1C(=O)N1CCOCC1CC(=O)c1ccccc1 (stereo unspecified) : Mtb growth Cornell: 13.4%; Mtb heat-shock: -13.39%
* c1cnc(-c2cnc(N3CCCCC3)nc2C2CCCO2)cn1 (stereo unspecified) : Mtb growth Cornell: -2.556%; Mtb heat-shock: -11.17%
* O=C(O)C(=O)O.c1cncc(CN2CCC(c3ccc4c(c3)OCO4)CC2)c1 : Mtb growth Cornell: -46.94%; Mtb heat-shock: -6.288%
* O=C(O)C(F)(F)F.O=C(O)C(F)(F)F.c1cnn(Cc2nnc3n2CCCN(Cc2ccsc2)C3)c1 : Mtb heat-shock: -42.35%
* COCCN1CCCc2sc(C(=O)Nc3ccc(C)nc3)nc21.O=C(O)C(F)(F)F : Mtb growth Cornell: -57.54%; Mtb heat-shock: 5.051%
* CCCc1nnsc1C(=O)NCC1CCN(c2ncccn2)CC1 : Mtb growth Cornell: 19.84%; Mtb heat-shock: -43.73%
* CC(C)n1nc(CN2CCCC2)c2c1CN(CC1CC1)CC2.O=C(O)C(F)(F)F.O=C(O)C(F)(F)F : Mtb growth Cornell: 3.423%; Mtb heat-shock: 26.46%
* CCn1cc(NC(=O)C2CCC(=O)N2Cc2ccco2)cn1 (stereo unspecified) : Mtb growth Cornell: 12.85%; Mtb heat-shock: -0.07204%
* O=S(=O)(C1CC1)N1CCCn2nnc(Cn3cccc3)c2C1 : Mtb growth Cornell: 9.681%; Mtb heat-shock: 7.567%
* COc1ccc(CNC(=O)NC(C)(CO)C2CC2)c(C(F)(F)F)c1 (stereo unspecified) : Mtb growth Cornell: -2.657%; Mtb heat-shock: 6.504%
* Cc1cc(C2CCCN(C(=O)COc3cc(F)ccc3F)C2)n[nH]1 (stereo unspecified) : Mtb growth Cornell: 9.049%; Mtb heat-shock: -4.391%
* O=C(O)C(F)(F)F.O=C(O)C(F)(F)F.[H][C@@]12CCCO[C@]1([H])[C@@H](OCc1ccncc1)CN2Cc1c(C)noc1C : Mtb growth Cornell: 10.64%; Mtb heat-shock: -41.2%
* CCOc1cc(C(=O)NS(C)(=O)=O)cc(-c2ccccc2)c1OC : Mtb growth Cornell: 10.41%; Mtb heat-shock: 9.933%
* COCCN(C(=O)c1c[nH]c2ncccc12)C1CCCC1 : Mtb growth Cornell: -3.029%; Mtb heat-shock: 11.38%
* COC(=O)c1ccc(CNC(=O)CN2C[C@@H](NC(C)=O)[C@H](C(C)C)C2)o1 : Mtb growth Cornell: 17.84%; Mtb heat-shock: 12.62%
* Cc1nn(CCO)cc1CN1CCC(N2CCC(O)CC2)CC1 : Mtb growth Cornell: 12.27%; Mtb heat-shock: -12.22%
* O=C(O)C(F)(F)F.[H][C@@]12CN(CC)C[C@]1(C(=O)N(C)C)CCC21CCN(S(=O)(=O)CC)CC1 : Mtb growth Cornell: -43.79%; Mtb heat-shock: 1.32%
* COc1ccccc1CCNC(=O)NC(C)COCC(F)(F)F (stereo unspecified) : Mtb growth Cornell: 8.319%; Mtb heat-shock: -22.25%
* Cc1nc(CC(=O)N2CCc3nnc(N(C)C)cc3C2)cs1 : Mtb heat-shock: 17.98%
* COc1ccc(C(=O)c2cnc(C(C)C)n2C)cc1 : Mtb growth Cornell: 4.416%; Mtb heat-shock: -15.87%

Some entries from above, unchanged:

| compound | Mtb growth Cornell | Mtb heat-shock |
|---|---|---|
| `COCCN(C(=O)c1c[nH]c2ncccc12)C1CCCC1` | -3.029 | 11.38 |
| `CCCc1nnsc1C(=O)NCC1CCN(c2ncccn2)CC1` | 19.84 | -43.73 |
| `Cc1nc(O)c2nnn(C[C@H]3CCCN3C(=O)CCC3CCCC3)c2n1` | -3.127 | 3.099 |
| `CCn1cc(NC(=O)C2CCC(=O)N2Cc2ccco2)cn1` (stereo unspecified) | 12.85 | -0.07204 |
| `COc1cc(OC)cc(C2NC(=O)CN2Cc2ccc(Br)cc2)c1` (stereo unspecified) | -0.9721 | 23.77 |